The values below come from doi:10.1101/2024.05.08.593233.

One assay addresses EGFR (HEK293T lysate) (UniProt P00533). The assay is described as follows: co-IP.
The target in a further assay is T1, HA-WIPI2d (UniProt Q9Y4P8).
T1 sequence: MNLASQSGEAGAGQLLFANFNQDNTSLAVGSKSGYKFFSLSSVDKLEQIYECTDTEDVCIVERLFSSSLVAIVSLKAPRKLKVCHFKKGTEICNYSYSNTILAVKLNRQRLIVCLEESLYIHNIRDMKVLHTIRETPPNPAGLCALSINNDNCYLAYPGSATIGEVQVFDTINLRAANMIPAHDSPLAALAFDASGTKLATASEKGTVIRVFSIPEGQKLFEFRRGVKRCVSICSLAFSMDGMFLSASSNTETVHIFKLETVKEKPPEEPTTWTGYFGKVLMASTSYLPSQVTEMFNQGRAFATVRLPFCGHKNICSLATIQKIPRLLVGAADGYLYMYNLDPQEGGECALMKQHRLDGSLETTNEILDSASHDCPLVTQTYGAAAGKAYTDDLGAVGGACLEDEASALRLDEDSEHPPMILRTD
Nature of the assay: co-IP.

These are yes or no findings as the source states them, for the method shown. In cells and extracts the contact can be indirect. Some binding calls cover weakened binding; strength is not graded here. For part of these data: Where a sequence is shown, tags or fusion partners need not be part of it.

For the molecule “HRS (HEK293T lysate, Extended Data Fig. 8e) (from UniProt O14964 1-777)”, the binding entry with EGFR (HEK293T lysate) is given as “binds”.

B1: 3×FLAG-Rubicon (1–972) (protein, UniProt Q92622 1-972)
chain: MRPEGAGMELGGGEERLPEESRREHWQLLGNLKTTVEGLVSTNSPNVWSKYGGLERLCRDMQSILYHGLIRDQACRRQTDYWQFVKDIRWLSPHSALHVEKFISVHENDQSSADGASERAVAELWLQHSLQYHCLSAQLRPLLGDRQYIRKFYTDAAFLLSDAHVTAMLQCLEAVEQNNPRLLAQIDASMFARKHESPLLVTKSQSLTALPSSTYTPPNSYAQHSYFGSFSSLHQSVPNNGSERRSTSFPLSGPPRKPQESRGHVSPAEDQTIQAPPVSVSALARDSPLTPNEMSSSTLTSPIEASWVSSQNDSPGDASEGPEYLAIGNLDPRGRTASCQSHSSNAESSSSNLFSSSSSQKPDSAASSLGDQEGGGESQLSSVLRRSSFSEGQTLTVTSGAKKSHIRSHSDTSIASRGAPESCNDKAKLRGPLPYSGQSSEVSTPSSLYMEYEGGRYLCSGEGMFRRPSEGQSLISYLSEQDFGSCADLEKENAHFSISESLIAAIELMKCNMMSQCLEEEEVEEEDSDREIQELKQKIRLRRQQIRTKNLLPMYQEAEHGSFRVTSSSSQFSSRDSAQLSDSGSADEVDEFEIQDADIRRNTASSSKSFVSSQSFSHCFLHSTSAEAVAMGLLKQFEGMQLPAASELEWLVPEHDAPQKLLPIPDSLPISPDDGQHADIYKLRIRVRGNLEWAPPRPQIIFNVHPAPTRKIAVAKQNYRCAGCGIRTDPDYIKRLRYCEYLGKYFCQCCHENAQMAIPSRVLRKWDFSKYYVSNFSKDLLIKIWNDPLFNVQDINSALYRKVKLLNQVRLLRVQLCHMKNMFKTCRLAKELLDSFDTVPGHLTEDLHLYSLNDLTATRKGELGPRLAELTRAGATHVERCMLCQAKGFICEFCQNEDDIIFPFELHKCRTCEECKACYHKACFKSGSCPRCERLQARREALARQSLESYLSDYEEEPAEALALEAAVLEAT
As for B1, the binding entry in the assay with HA-WIPI2d is given as “binds”.

B2: 3×FLAG-Rubicon (1-625, 761–972) (protein, UniProt Q92622)
chain: MRPEGAGMELGGGEERLPEESRREHWQLLGNLKTTVEGLVSTNSPNVWSKYGGLERLCRDMQSILYHGLIRDQACRRQTDYWQFVKDIRWLSPHSALHVEKFISVHENDQSSADGASERAVAELWLQHSLQYHCLSAQLRPLLGDRQYIRKFYTDAAFLLSDAHVTAMLQCLEAVEQNNPRLLAQIDASMFARKHESPLLVTKSQSLTALPSSTYTPPNSYAQHSYFGSFSSLHQSVPNNGSERRSTSFPLSGPPRKPQESRGHVSPAEDQTIQAPPVSVSALARDSPLTPNEMSSSTLTSPIEASWVSSQNDSPGDASEGPEYLAIGNLDPRGRTASCQSHSSNAESSSSNLFSSSSSQKPDSAASSLGDQEGGGESQLSSVLRRSSFSEGQTLTVTSGAKKSHIRSHSDTSIASRGAPESCNDKAKLRGPLPYSGQSSEVSTPSSLYMEYEGGRYLCSGEGMFRRPSEGQSLISYLSEQDFGSCADLEKENAHFSISESLIAAIELMKCNMMSQCLEEEEVEEEDSDREIQELKQKIRLRRQQIRTKNLLPMYQEAEHGSFRVTSSSSQFSSRDSAQLSDSGSADEVDEFEIQDADIRRNTASSSKSFVSSQSFSHCFLHSTSRVLRKWDFSKYYVSNFSKDLLIKIWNDPLFNVQDINSALYRKVKLLNQVRLLRVQLCHMKNMFKTCRLAKELLDSFDTVPGHLTEDLHLYSLNDLTATRKGELGPRLAELTRAGATHVERCMLCQAKGFICEFCQNEDDIIFPFELHKCRTCEECKACYHKACFKSGSCPRCERLQARREALARQSLESYLSDYEEEPAEALALEAAVLEAT
In the case of B2, in the assay with HA-WIPI2d, the binding entry is on record as “no binding”.
